Data as given in article PMC4792926, “G9a-mediated methylation of ERα links the PHF20/MOF histone acetyltransferase complex to hormonal gene expression” (Nature Communications, 2016).
These are yes or no findings as the source states them, for the method shown. For some of these results: In cells and extracts the contact can be indirect. Some binding calls cover weakened binding; strength is not graded here. For some of these results: Sequences can lack the tags named with a protein. Blank lines part the entries; values can stand above or below the molecule they belong to.

Protein sequences, listed by entry. Tags and fused reporters are not part of them. Lines headed by an entry give the natural chain unless they say otherwise; changes in a name come on top.
UniProt P03372: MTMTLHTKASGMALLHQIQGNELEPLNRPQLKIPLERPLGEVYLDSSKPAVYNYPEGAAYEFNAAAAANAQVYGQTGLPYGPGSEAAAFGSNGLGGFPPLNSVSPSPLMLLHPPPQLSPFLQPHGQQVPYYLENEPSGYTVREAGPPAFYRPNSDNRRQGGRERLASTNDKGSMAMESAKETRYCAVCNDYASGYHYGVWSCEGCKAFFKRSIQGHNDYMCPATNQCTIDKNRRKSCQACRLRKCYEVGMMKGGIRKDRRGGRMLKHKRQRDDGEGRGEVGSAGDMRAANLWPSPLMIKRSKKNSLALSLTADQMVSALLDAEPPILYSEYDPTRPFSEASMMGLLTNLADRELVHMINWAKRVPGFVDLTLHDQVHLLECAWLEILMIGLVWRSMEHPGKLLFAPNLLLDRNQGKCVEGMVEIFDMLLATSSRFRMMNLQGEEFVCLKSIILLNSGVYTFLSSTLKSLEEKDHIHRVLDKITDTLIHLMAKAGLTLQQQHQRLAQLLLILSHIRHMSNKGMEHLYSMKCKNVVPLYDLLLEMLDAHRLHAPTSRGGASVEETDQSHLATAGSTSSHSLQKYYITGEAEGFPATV

Tests used:
[1] = biological target: T1, S. pombe SPF30 Tudor domain (on the CADOR array) (S. pombe) (UniProt O94519); assay: peptide or protein array; CADOR 5.0 chromatin-associated domain array (over 300 reader domains spotted) probed with biotinylated ERα peptides (aa 227-244, K235me2 or unmodified); both purified
T1 sequence: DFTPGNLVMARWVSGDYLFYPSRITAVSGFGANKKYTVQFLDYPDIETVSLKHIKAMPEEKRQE

[2] = biological target: T2, Flag-PHF20 (human) (UniProt Q9BVI0); assay: co-IP; HEK-293T cells co-transfected with Flag- and Myc-tagged proteins; anti-FLAG M2 agarose IP, western blot; lysis in 50 mM Tris-HCl pH 7.4, 250 mM NaCl, 0.5% Triton X-100, 10% glycerol, 1 mM DTT; also with G9a co-expression or BIX-01294 for 24 h
T2 sequence: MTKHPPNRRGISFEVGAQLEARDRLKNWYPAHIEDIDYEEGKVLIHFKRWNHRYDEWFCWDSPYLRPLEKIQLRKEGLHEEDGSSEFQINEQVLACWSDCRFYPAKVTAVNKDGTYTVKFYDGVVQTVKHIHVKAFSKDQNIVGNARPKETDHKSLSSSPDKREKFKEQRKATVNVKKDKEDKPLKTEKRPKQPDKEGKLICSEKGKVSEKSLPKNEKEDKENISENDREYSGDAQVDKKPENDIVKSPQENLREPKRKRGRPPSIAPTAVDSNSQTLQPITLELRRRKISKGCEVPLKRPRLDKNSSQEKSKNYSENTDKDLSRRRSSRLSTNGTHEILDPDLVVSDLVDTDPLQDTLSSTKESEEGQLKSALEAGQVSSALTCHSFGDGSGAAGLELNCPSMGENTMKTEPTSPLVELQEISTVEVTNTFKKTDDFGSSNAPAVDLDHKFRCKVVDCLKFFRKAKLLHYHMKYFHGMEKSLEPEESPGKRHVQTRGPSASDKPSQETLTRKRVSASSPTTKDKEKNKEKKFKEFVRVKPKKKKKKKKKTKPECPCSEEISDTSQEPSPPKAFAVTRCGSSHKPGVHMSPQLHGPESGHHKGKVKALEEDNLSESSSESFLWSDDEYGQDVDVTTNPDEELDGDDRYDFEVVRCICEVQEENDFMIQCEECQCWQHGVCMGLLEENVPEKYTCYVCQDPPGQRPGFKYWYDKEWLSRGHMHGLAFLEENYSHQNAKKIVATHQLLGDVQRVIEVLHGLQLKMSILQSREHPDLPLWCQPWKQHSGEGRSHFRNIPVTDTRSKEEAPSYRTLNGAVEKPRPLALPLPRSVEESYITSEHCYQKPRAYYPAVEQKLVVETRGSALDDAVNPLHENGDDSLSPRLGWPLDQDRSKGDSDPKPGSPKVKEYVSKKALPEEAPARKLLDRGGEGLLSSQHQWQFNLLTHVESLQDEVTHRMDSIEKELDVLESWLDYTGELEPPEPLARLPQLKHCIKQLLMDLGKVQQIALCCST

[3] = biological target: Flag-ERα (human) (UniProt P03372); assay: as above
[4] = biological target: Flag-ERαK235R mutant (human) (UniProt P03372); assay: as above

- binding [1]: binds
Molecule: ERα peptide (aa 227–244) bearing dimethylated K235 (from UniProt P03372 227-244)

- binding [2]: binds
Molecule: Myc-ERα (from UniProt P03372 1-595) (receptor)

- binding [3]: binds
- binding [4]: binds
B1: Myc-PHF20 (protein, UniProt Q9BVI0 1-1012)
chain: MTKHPPNRRGISFEVGAQLEARDRLKNWYPAHIEDIDYEEGKVLIHFKRWNHRYDEWFCWDSPYLRPLEKIQLRKEGLHEEDGSSEFQINEQVLACWSDCRFYPAKVTAVNKDGTYTVKFYDGVVQTVKHIHVKAFSKDQNIVGNARPKETDHKSLSSSPDKREKFKEQRKATVNVKKDKEDKPLKTEKRPKQPDKEGKLICSEKGKVSEKSLPKNEKEDKENISENDREYSGDAQVDKKPENDIVKSPQENLREPKRKRGRPPSIAPTAVDSNSQTLQPITLELRRRKISKGCEVPLKRPRLDKNSSQEKSKNYSENTDKDLSRRRSSRLSTNGTHEILDPDLVVSDLVDTDPLQDTLSSTKESEEGQLKSALEAGQVSSALTCHSFGDGSGAAGLELNCPSMGENTMKTEPTSPLVELQEISTVEVTNTFKKTDDFGSSNAPAVDLDHKFRCKVVDCLKFFRKAKLLHYHMKYFHGMEKSLEPEESPGKRHVQTRGPSASDKPSQETLTRKRVSASSPTTKDKEKNKEKKFKEFVRVKPKKKKKKKKKTKPECPCSEEISDTSQEPSPPKAFAVTRCGSSHKPGVHMSPQLHGPESGHHKGKVKALEEDNLSESSSESFLWSDDEYGQDVDVTTNPDEELDGDDRYDFEVVRCICEVQEENDFMIQCEECQCWQHGVCMGLLEENVPEKYTCYVCQDPPGQRPGFKYWYDKEWLSRGHMHGLAFLEENYSHQNAKKIVATHQLLGDVQRVIEVLHGLQLKMSILQSREHPDLPLWCQPWKQHSGEGRSHFRNIPVTDTRSKEEAPSYRTLNGAVEKPRPLALPLPRSVEESYITSEHCYQKPRAYYPAVEQKLVVETRGSALDDAVNPLHENGDDSLSPRLGWPLDQDRSKGDSDPKPGSPKVKEYVSKKALPEEAPARKLLDRGGEGLLSSQHQWQFNLLTHVESLQDEVTHRMDSIEKELDVLESWLDYTGELEPPEPLARLPQLKHCIKQLLMDLGKVQQIALCCST
